Test results as given in the supplement of paper PMC3334620.
Over roughly 33,000 sequences, “E-score (-0.5 to 0.5)” has its median near -0.016; the highest 2% begin near 0.3. This is one part of the list.

molecular target: T1, Yer184c (UniProt P39961); assay: PBM E-score (8-mer binding enrichment) (E-score (-0.5 to 0.5)); higher = stronger / more preferred TF binding; conditions: protein concentration: 100 nM; construct: GST-full length
T1 sequence: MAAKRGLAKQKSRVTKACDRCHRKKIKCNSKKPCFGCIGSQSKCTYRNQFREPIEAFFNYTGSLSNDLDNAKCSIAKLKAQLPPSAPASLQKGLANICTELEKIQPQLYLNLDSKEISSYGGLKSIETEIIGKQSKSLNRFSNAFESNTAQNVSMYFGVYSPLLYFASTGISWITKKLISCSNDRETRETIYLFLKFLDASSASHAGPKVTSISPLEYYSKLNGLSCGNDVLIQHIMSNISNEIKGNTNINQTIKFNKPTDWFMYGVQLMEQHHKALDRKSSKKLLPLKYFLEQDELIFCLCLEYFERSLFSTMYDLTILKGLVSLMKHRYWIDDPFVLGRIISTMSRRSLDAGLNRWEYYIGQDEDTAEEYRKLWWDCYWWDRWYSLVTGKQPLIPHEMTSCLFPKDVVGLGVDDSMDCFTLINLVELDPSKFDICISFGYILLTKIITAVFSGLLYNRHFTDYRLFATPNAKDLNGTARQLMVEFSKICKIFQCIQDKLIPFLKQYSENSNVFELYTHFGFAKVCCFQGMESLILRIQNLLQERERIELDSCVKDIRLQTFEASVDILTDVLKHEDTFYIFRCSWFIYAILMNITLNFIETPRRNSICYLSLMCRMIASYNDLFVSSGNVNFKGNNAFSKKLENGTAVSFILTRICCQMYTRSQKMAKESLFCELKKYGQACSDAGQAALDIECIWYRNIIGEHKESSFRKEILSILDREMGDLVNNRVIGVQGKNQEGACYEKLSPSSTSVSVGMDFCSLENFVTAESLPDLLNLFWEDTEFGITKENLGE
Outline: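 Masliner-normalised scans of fluorescent anti-GST signal were the basis for scoring. That signal came from GST-tagged yeast transcription factors applied at about 100-200 nM to double-stranded universal all-10-mer Agilent arrays on fresh or once-stripped slides. Each ungapped eight-base word, pooled with its reverse complement, received an E-score from the Universal PBM Analysis Suite.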

| Sequence | PBM E-score |
| --- | --- |
| CGCCCTTC | -0.0242 |
| CTAGCCTA | -0.123 |
| AGGACGGG | -0.319 |
| TAGCGTAA | 0.0813 |
| CTCTGCGC | -0.0561 |
| AGTATTGC | 0.0896 |
| GGTACAAC | 0.0126 |
| CTCATTGC | -0.00414 |
| GAATTTCA | 0.0933 |
| CCAGGCAC | -0.201 |
| CCCTCTCG | -0.293 |
| CAACCAAC | -0.133 |
| TTCGGAAA | 0.402 |
| ATTAGATA | 0.0273 |
| AGCCTCCA | -0.232 |
| GGTGTCAA | -0.0555 |
| GAACTTCA | 0.0887 |
| GAGATAGC | -0.138 |
| AGTGCCGA | 0.333 |
| CAGAGTTC | -0.0706 |
| CCCGCTAG | -0.0626 |
| CGCCTCAC | 0.0992 |
| GCTAAAAC | 0.0712 |
| ATTAGGGC | -0.0844 |
| AATATCCC | -0.0444 |

| Sequence | PBM E-score |
| --- | --- |
| CAAATGCG | 0.00593 |
| ATTGAACC | -0.00854 |
| AGCCGCAC | 0.0503 |
| AACGTCAG | -0.26 |
| CATCGTTC | 0.077 |
| AACGCTGT | -0.0805 |
| TGAGGGCA | -0.241 |
| GGGTCAAC | 0.0162 |
| ACATCTAC | 0.131 |
| GGGTTCGA | -0.105 |
| GCAGTTAA | -0.1 |
| TCCTACCA | -0.156 |
| ATTCCTTG | -0.0558 |
| GAAGGAAA | 0.0723 |
| AACCACTT | -0.00261 |
| AGCTTCCC | -0.242 |
| TGCTACAA | 0.179 |
| CCCCTCAG | -0.364 |
| AACCTGGA | -0.0614 |
| CATACAAC | 0.00099 |
| CCGGATTC | 0.33 |
| CTCCTACA | -0.129 |
| ATGCTCAC | -0.123 |
| CCTTCGCC | -0.234 |
| ACATCTCC | 0.128 |

| Sequence | PBM E-score |
| --- | --- |
| ATTCGCGG | 0.238 |
| AAGTCTAA | -0.093 |
| CAATTTAG | 0.0966 |
| TGTAGAAA | -0.00609 |
| CGGGTCGC | 0.0996 |
| TAGGTAAA | -0.00711 |
| TCTCATAA | 0.0404 |
| AACAATAT | 0.352 |
| AGGGGAGC | -0.294 |
| CACCGGAG | 0.173 |
| ACAAACCC | 0.0283 |
| GGACGGCC | -0.00088 |
| CTAATTAA | 0.0794 |
| CTTAATGC | 0.0292 |
| AAACAATT | 0.154 |
| AAACGGTG | 0.00684 |
| TACGCCCA | -0.109 |
| CGGTATAG | -0.044 |
| CATCCTTC | -0.145 |
| AGTACACG | 0.00971 |
| GCTGATTA | 0.217 |
| AGAAACGG | 0.199 |
| GACGCGTA | -0.0871 |
| GGTAACAA | 0.246 |
| CATACTAC | 0.0142 |

| Sequence | PBM E-score |
| --- | --- |
| AAGTTGTC | 0.142 |
| AGTCGCCG | 0.154 |
| CAGCTCGA | -0.114 |
| AAAATTCT | 0.0787 |
| GAAATCAC | 0.256 |
| CTGTTCCC | -0.122 |
| CGGGGATC | 0.0365 |
| AATCATAA | 0.184 |
| TAAGTGCA | 0.00668 |
| ATGTGGTC | -0.167 |
| CCGCTACC | 0.0517 |
| AGACACTA | 0.2 |
| ACCCAAAT | -0.00836 |
| GATAGGGA | -0.179 |
| GGATGCTA | -0.0651 |
| ATGTCCCA | -0.24 |
| ATTCCAAG | 0.0923 |
| TACCTGCA | -0.0159 |
| CACTCGGA | 0.294 |
| ACCCCGCT | -0.094 |
| GATAGATC | 0.0513 |
| GAGAAAGC | 0.0414 |
| CCAGTTGA | -0.125 |
| ACTCCTGA | -0.085 |
| AACCACGT | -0.148 |

| Sequence | PBM E-score |
| --- | --- |
| ATAATTTC | 0.141 |
| GCTCCTCA | -0.175 |
| AGTCAGTA | 0.0215 |
| GCCAAACC | -0.0969 |
| GTGAGACA | -0.13 |
| ATCCTATC | -0.0475 |
| ATAGGAAA | 0.174 |
| AGTCCTTC | -0.202 |
| CCGAAGAA | 0.345 |
| ACGAACCC | -0.154 |
| TATACTCA | 0.087 |
| GCCGGCCA | 0.348 |
| ACTCAACC | 0.0685 |
| GAGCTAAC | 0.0495 |
| AGTCAGTC | -0.337 |
| AATTCCGG | 0.387 |
| ACCCCAAT | -0.272 |
| CGATGCCG | 0.234 |
| CCCATCCA | -0.0987 |
| CAAAGCAA | 0.197 |
| CGAGCGGC | 0.279 |
| CAAGCTGC | 0.00448 |
| CCAAGGAC | -0.0257 |
| CAATAACA | -0.0893 |
| AGTGCTAC | -0.226 |

| Sequence | PBM E-score |
| --- | --- |
| AGAATTGC | -0.134 |
| TGAGCAAA | 0.0568 |
| AGAACGCA | -0.0916 |
| TCGATCAA | 0.0787 |
| CTCGCGTC | -0.19 |
| CAATATAC | -0.0255 |
| AGTTGACA | 0.0221 |
| ACCGCATA | 0.147 |
| CCGGCGTC | 0.271 |
| ACACCGAT | -0.0483 |
| GCTCATCA | -0.0178 |
| CCTACATC | -0.0564 |
| ACAGACAC | 0.0795 |
| GCCATCCC | -0.0907 |
| CGTGCTTA | 0.106 |
| ACTATTCT | -0.0239 |
| TTAGATAA | 0.0522 |
| CGTGCATA | -0.0313 |
| ATGGTCCA | -0.0752 |
| ATAAGGTG | 0.184 |
| GACATCGC | -0.0693 |
| TCGGACAA | 0.378 |
| GAATTATC | 0.0532 |
| CCCCATCC | -0.106 |
| CACAAAAC | 0.105 |

| Sequence | PBM E-score |
| --- | --- |
| CTCGTATC | 0.00092 |
| AATCACGA | -0.0544 |
| CGGTTTCC | 0.298 |
| CAACAGTC | 0.0214 |
| CCCTAGGA | -0.15 |
| AGGTACAT | -0.323 |
| TCTGTCAA | 0.0885 |
| ATGTCCGC | -0.0241 |
| CTGTCTGA | -0.139 |
| GGTTAGAA | -0.166 |
| TACTAGAA | 0.0468 |
| ATCTCGTA | -0.0757 |
| AACGGAGT | 0.312 |
| ACGTAAGC | -0.177 |
| GCTAGCTA | -0.0213 |
| CGAGGTGC | 0.148 |
| GTTGCGTA | 0.134 |
| CGAAATAC | 0.185 |
| AAGCTATA | 0.15 |
| GGCTCTAA | 0.0329 |
| AGCAAATA | 0.0468 |
| CAAGGGTC | -0.0734 |
